No constants are given. Whether binding was seen depends on the method and setting. Some results given as binding are weak or reduced against the parent protein; the word gives no strength.

Experimental findings from patent publication US20240209088A1 are described below.

Assay [1] addresses full-length human CD4 on cells (human) (UniProt P01730). In words: live-cell immunofluorescence of CHO-hCD4 cells, unlabeled Nb detected with anti-VHH Cy5 secondary antibody.
The target is the same in assay [2]. The experiment in a line: live-cell staining of CHO-hCD4 cells, immunofluorescence.

B1: CD4-Nb1 (VHH)
VHH: EVQLVESGGGLVQPGGSLRLSCAASGFTFSKLAMSWHREPPGKGREWLADIDSSGDTTDYLASVKGRFTISRDNAKNTLYLQMDSLKSEDTGVYYCASREDPPGYWGQGTQVTVSS
For B1, the binding entry in assay [1] and in assay [2] was “binds” in each case.
